Reference: US20250129170A1
Residue numbers refer to the chain shown, from its start. No constants are given. Whether binding was seen depends on the method and setting. Some entries that bind do so weakly or less than the wild type. Values belong to the binder of their own block, whether it stands above or below them.

Sequences of proteins named here, by UniProt entry; tags and fusion partners are left off. Residues count along the entry.
UniProt P32927, residues 17-443: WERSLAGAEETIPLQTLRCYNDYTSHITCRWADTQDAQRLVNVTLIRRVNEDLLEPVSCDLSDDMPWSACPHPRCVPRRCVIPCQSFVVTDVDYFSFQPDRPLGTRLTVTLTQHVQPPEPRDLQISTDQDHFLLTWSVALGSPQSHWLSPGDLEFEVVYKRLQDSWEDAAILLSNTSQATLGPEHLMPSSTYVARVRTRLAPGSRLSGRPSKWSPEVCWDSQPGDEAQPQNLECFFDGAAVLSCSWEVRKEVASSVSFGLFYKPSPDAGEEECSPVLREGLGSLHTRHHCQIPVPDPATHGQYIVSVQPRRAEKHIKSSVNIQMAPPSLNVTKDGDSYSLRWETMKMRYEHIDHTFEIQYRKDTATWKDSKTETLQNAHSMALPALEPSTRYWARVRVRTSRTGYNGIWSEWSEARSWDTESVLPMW

Target: hCD131-Fc (IME021, inhouse) (human) (UniProt P32927)
Assay: B-cell sorting, labelled hEPOR-Fc and hCD131-Fc

binding: binds
B1: clonotype274 (EPOR/CD131 binder, Table 8) (antibody, V domains shown)
VH: EVQLVESGGGLVQPGGSLRLSCGVSGFTFSIYWMSWVRQAPGKGLEWVANINLDGSEKYHVDSVKGRFTISRDNAKNSLFLQMTSLRAEDTAVYYCARDILWSGGYLDVWGKGTTVTVSS
VL: SSELTQDPAVSVALGQTVRITCQGDNIRNYYASWYQQKPGQAPLLVISGKNNRPSGIPDRFSGSSSGNTASLTITGAQAEDEAYYYCYSRDSSGSLWIFGGGTKLTVL

binding: binds
B2: clonotype239 (EPOR/CD131 binder, Table 8) (antibody, V domains shown)
VH: EVQVMESGGGLVKPGGSLRLSCAASGFSFSSHSLNWVRQAPGKGLEWVSSISGISNYIAYADSVRGRFTISRDNAKNSLFLQMNSLRAEDTGVYYCARITVVSFDYWGQGTLVTVTS
VL: QSALTQPASVSGSPGQSITISCTGTNNDVGYYNYVSWYQQHPDKAPKLMIYDVIKRPSGVSDRFSGSKSGNTASLTISGLQAEDEADYYCCSYAGSSTWVFGGGTKLSVL

binding: binds
B3: clonotype235 (EPOR/CD131 binder, Table 8) (antibody, V domains shown)
VH: QVQVVQSGAEVRKSGASVKVSCKASGYTFTSYYIHWVRQVPGQGLEWMGLINPSGGSTIYAQKFQGRVTMTRDTSTSSVYMELSSLRSEDTAAYYCARGGWGTMDVWGKGTTVTVSS
VL: SSELTQDPAVSVALGQTVRITCQGDSLRSYYASWYQQKPGQAPVLVIYGKNNRPSGIPDRFSGSSSGNTASLTITGAQAEDEADYYCNSRDSSGNHYVFGTGTKVTVL

binding: binds
B4: clonotype264 (EPOR/CD131 binder, Table 8) (antibody, V domains shown)
VH: EVQLVESGGGLVQPGGSLRLSCAASGFTFSSYWMHWVRQAPGKGLVWVSRINSDGSSTSYADSVKGRFTISRDNAKNTLYLQMNSLRAEDTAVYYCARVGWGGHAFDIWGQGTMVTVSS
VL: B3 VL with Y97V, T101G, V105L

binding: binds
B5: clonotype246 (EPOR/CD131 binder, Table 8) (antibody, V domains shown)
VH: EVQLVESGGGLVQPGGSLRLSCAASGFTFSSYSMNWVRQAPGKGLEWVSYISSSSSTIYYADSVKGRFTISRDNAKNSLYLQMNSPRDEDTAVYYCARESIAALFDYWGQGTLVTVSS
VL: B3 VL with Y97L, T101G, V105L

binding: binds
B6: clonotype293 (EPOR/CD131 binder, Table 8) (antibody, V domains shown)
VH: EVQLVESGGGLVKPGGSLRLSCAASGFTFSSDNMNWVRQAPGKGLEWVSSIGSSSSYIYYADSVKGRFTISRDNAKNSLYLQMNSLRAEDTAVYYCARDRAIVGATWFDPWGQGTLVIVSS
VL: B3 VL with S29N, V44I, G94Y, Y97W, T101G, V105L

binding: binds
B7: clonotype294 (EPOR/CD131 binder, Table 8) (antibody, V domains shown)
VH: EVQLVESGGGLVKPGGSLRLSCAASGFTFSSYSMNWVRQAPGKGLEWVSSISSSSSYIYYADSVKGRFTISRDNAKNSLYLQMNSLRAEDTAVYYCARDRYNWNYRYFDLWGRGTLVTVSS
VL: B3 VL with Y97L, T101G, V105L

binding: binds
B8: clonotype275 (EPOR/CD131 binder, Table 8) (antibody, V domains shown)
VH: EVQLVESGGGLVQPGGSLRLSCAASGFTFSGYWMTWVRQAPGKGLEWVANIKHDGSEKYYVDSVKGRFTISRDNAQNSLYLQMNSLRAEDTAVYYCARKQLWLNWYFDFWGRGILVTVSS
VL: B3 VL with S29R, N51D, A77T, Y97L, T101G, V105L

binding: binds
B9: clonotype236 (EPOR/CD131 binder, Table 8) (antibody, V domains shown)
VH: EVQLVESGGGLVQPGGSLRLSCAASGFTFSSYDMHWVRQATGKGLEWVSAIGTAGDTYYPGSVKGRFTISRENAKNSLYLQMNSLRAGDTAVYYCARAWELDAFDIWGQGTMVTVSS
VL: B3 VL with Y97V, T101G, V105L

binding: binds
B10: clonotype276 (EPOR/CD131 binder, Table 8) (antibody, V domains shown)
VH: QVQLVQSGAEVKKPGASVKVSCKASGYTFTTYGISWVRQAPGQGLEWMGWISAFNGNTNYAQNLQGRVTMTTDTSTSTAYMELRSLRSDDTAVYYCARENNWNYGWFDPWGQGTLVTVSS
VL: B3 VL

binding: binds
B11: clonotype292 (EPOR/CD131 binder, Table 8) (antibody, V domains shown)
VH: QVQLQESGPGLVKPSETLSLTCTVSGGSISDYYWNWIRQPPGKGLEWIGYISSRGRTNYNPSLKSRVTLSVDSSKNQFSLKLTSVTAADTAVFYCARGRHFDWLLSYFDYWGQGTLVTVSS
VL: B3 VL

binding: binds
B12: clonotype272 (EPOR/CD131 binder, Table 8) (antibody, V domains shown)
VH: EVQLVESGGGLVQPGGSLRLSCAASGFTFNRYNMNWVRQAPGKGLEWVSYISSSSDTIYYADSVKGRFTISRDNAKNSLYLQMNSLRDEDTAMYYCARECYSSSWAFDYWGQGTLVTVSS
VL: SSELTQDPAVSVALGQTVRITCQGDSLRSYYASWYQQKPGQAPVLVIYGKNNRPSGILDRFSGSSSGNTASLTITGAQAEDEGDYYCNSRDSSGWVFGGGTKLTVL

binding: binds
B13: clonotype247 (EPOR/CD131 binder, Table 8) (antibody, V domains shown)
VH: EVQLVESGGGLVQPGGSLRLSCAASGFTFSSYDMHWVRQATGKGLEWVSAIGTAGDTYYPGSVKGRFTISRENAKNSLYLQMNSLRAGDTAVYYCARGDHSYGGLDYWGQGTLVTVSS
VL: SYELTQPPSVSVSLGQMARITCSGEALPKKYAYWYQQKPGQFPVLVIYKDSERPSGIPERFSGSSSGTIVTLTISGVQAEDEADYYCLSADSSGTYRVFGGGTKLTVL

binding: binds
B14: clonotype215 (EPOR/CD131 binder, Table 8) (antibody, V domains shown)
VH: EVQLVESGGGLVQPGGSLRLSCAASGFTFSSYWMHWVRQAPGKGLVWVSRINSDGSSTSYADSVKGRFTISRDNAKNTLYLQMNSLRAEDTAVYYCARIDYWGQGTLVTVSS
VL: QSALTQPASVSGSPGQSITISCTGTSSDVGGYNYVSWYQQHPGKAPKLMIYEVSNRPSGVSNRFSGSKSGNTASLTISGLQAEDEADYYCSSYTSSSTWVFGGGTKLTVL

binding: binds
B15: clonotype226 (EPOR/CD131 binder, Table 8) (antibody, V domains shown)
VH: EVQLVESGGGLVQPGGSLRLSCAASGFTFSTYAMNWVRQAPGKGLEWVSAISGGGGSTYYADSVKGRFTISRDNSKNTLYLQMNSLRAEDTAVYYCAKRVFFDYWGQGTLVTVSS
VL: B14 VL with Y89S, S95I

binding: binds
B16: clonotype229 (EPOR/CD131 binder, Table 8) (antibody, V domains shown)
VH: VVQLVESGGGLVQPGGSLRLSCAASGFTFSRYWMSWVRQAPGKGLEWVANINQDGSEEYYVDSVKGRFTISRDNAKSSLSLQMNSLRAEDTALYYCATDLNWNGYWGQGTLVTVSS
VL: B14 VL with N33D, L48F, Y51S, E52G, S95R, S97R

binding: binds
B17: clonotype282 (EPOR/CD131 binder, Table 8) (antibody, V domains shown)
VH: EVQLVESGGGLVKPGGSLRLSCAASGFTFSSYSMNWVRQAPGKGLEWVSSISSSSSYIYYADSVKGRFTISRDNAKNSLYLQMNSLRAEDTAVYYCAREGNWGPYYFDYWGQGTLVTVSS
VL: B14 VL with E52D, N55K, S91C, T94A, S95G, W99V

binding: binds
B18: clonotype273 (EPOR/CD131 binder, Table 8) (antibody, V domains shown)
VH: QVQLQESGPGLVKPSGTLSLTCAISGGSISSSNWWSWVRQPPGKGLEWIGEIYHSGSTNFNPSLKSRVTISVDKSKNQFSLHLSSVTAADTAVYYCARDVGVDGRGFDYWGQGIVVIVSS
VL: SYELTQPPSVSVSPGQTANITCSGDKLENKYTCWYQQKPGQSPLVVIYQDNKRPSGIPERFSGSNSGNTATLTISGTQAMDEADYYCQAWDSTTAWVFGGGTKLTVL

binding: binds
B19: clonotype233 (EPOR/CD131 binder, Table 8) (antibody, V domains shown)
VH: EVQLVESGGGLVQPGRSLRLSCAASGFTFDDYAMHWVRQAPGKGLEWVSGISWNSGSIGYADSVKGRFTISRDNAKNSLYLQMNSLRAEDTALYYCAKDSGYSPDYWGQGTLVTVSS
VL: SYELTQPPSVSVSPGQTARITCSGDALPKKYAYWYQQKSGQAPVLVIYEDSKRPSGIPERFSGSSSGTMATLTISGAQVEDEADYYCYSTDSSGKGVFGGGTKLTVL

binding: binds
B20: clonotype290 (EPOR/CD131 binder, Table 8) (antibody, V domains shown)
VH: QVQLVQSGAEVKKPGASVKVSCKASGYTFTSYDINWVRQATGQGLEWMGWMNPNSGNTGYAQKFQGRVTMTRNTSISTAYMELSSLRSEDTAVYYCARGYYDFWSGPFDYWGQGTLVTVSS
VL: B19 VL with K95N, G96R

binding: binds
B21: clonotype289 (EPOR/CD131 binder, Table 8) (antibody, V domains shown)
VH: EVHLVESGGGLVQPGGSLRLSCAASGFTFSGYWMSWVRQAPGKGLEWVANIKQDGSDKYYVDSVKGRFTISRDNAINSLFLQLTSLRAEDTAVYYCAREIDWNYGFHFDYWGQGTLITVSS
VL: B19 VL with K29Q, Y33F, K52E, S65T, Y88F, K95N, G96K

binding: binds
B22: clonotype231 (EPOR/CD131 binder, Table 8) (antibody, V domains shown)
VH: QVQLVESGGGVVQPGRSLRLSCEASGFTFINYGMHWVRQAPGKGLEWVAVIWYDGSNKYYADSVKGRFTISRDNSKNTLYLQMNSLRAEDTAVYYCARDRSSSSDYWGQGTLVIVSS
VL: SYELTQPSSVSVSPGQTARITCSGDVLAKKYARWFQQKPGQAPVLVIYKDSERPSGIPERFSGSSSGTTVTLTISGAQVEDEADYYCYSAADNNRVFGGGTKLTVL

binding: binds
B23: clonotype260 (EPOR/CD131 binder, Table 8) (antibody, V domains shown)
VH: EVQLVESGGGVVRPGGSLRLSCAASGFPFDDFGLNWVRQAPGKGLEWVSGINWNGGTTTYADSVKGRFTISRDNAKKSLYLQMSSLRVEDTALFYCVRDEIWNYYFDYWGQGTLVTVSS
VL: B22 VL

binding: binds
B24: clonotype230 (EPOR/CD131 binder, Table 8) (antibody, V domains shown)
VH: EVQLVESGGGLVQPGGSLRLSCAASGFTFSRCDMYWVRQATGKGLEWVSAIGAAGDTYYPGSVKGRFTISRENAKNSLYLQMNSLRAGDTAVYYCATGYNWNPDYWGQGTLVTVSS
VL: QAVLTQPASLSASPGASASLTCTLRSGINVGTYRIYWYQQKPGSPPQYLLRYKSDSDKQQGSGVPSRFSGSKDASANAGILLISGLQSEDEADYYCMIWHSSASVFGGGTKLTVL
